In all, about 400,000 compounds went through this assay and about 13,000 (3.2%) were called active. The shares of active, inactive and inconclusive entries below differ from those in the screen. Calls come from the whole dose curve; as a rule, active = well fitted cell-killing curve with a large enough effect; inconclusive = small, poorly fitted or top-dose-only effect, or effect the other way; inactive = flat fitted curve, though single readings scatter. A potency beside an inconclusive call is a rough fit, not a confirmed value.
Test: qHTS assay for MDR1-selective chemotherapeutics: Primary screen using the drug-selected MDR subline cells KB-V1; note: nearly all actives have a fitted effect of over 60% in size
Settings: KB-V1 MDR cells viability, CellTiter-Glo, 72 h; activity change, negative = cytotoxicity: at 46.1 µM (top of the series)
Procedure, shortened: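 Following 72 h at 37 degrees C with compound, KB-V1 cell viability was read by CellTiter-Glo luminescence, medium being phenol-red-free DMEM plus 10% FBS; concentration-response parameters came from normalized, curve-fitted qHTS data.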
% is set by controls: 0 for no effect and ±100 for the full control effect; potency is the fitted concentration of half-maximal effect.

SMILES | Potency | activity change, negative = cytotoxicity
CCN(C(=O)C(C)OC(=O)CCCNC(=O)c1ccc(Cl)cc1)c1ccccc1 (stereo not drawn) | inconclusive: 9.2 µM [cytotoxic, partial curve] | 
CCOC(=O)c1sc2nc(C)n(CC(=O)Nc3cccc(Cl)c3)c(=O)c2c1C | inactive | 
Cc1cc2c(=O)n(Cc3ccco3)c(SCC(=O)N3CCCc4ccccc43)nc2s1 | inconclusive: 10.3 µM [cytotoxic, partial curve, poor fit] | 
O=C(CCCn1c(=O)oc2ccccc21)N1CCc2ccccc2C1 | inconclusive: 13 µM [cytotoxic, partial curve] | 
Cn1nnnc1Sc1ncnc2scc(-c3cccc(Br)c3)c12 | active: 18.4 µM | 
CCOc1ccc(Br)cc1S(=O)(=O)Nc1nc(CN2CCOCC2)nc2sc(C)c(C)c12 | inconclusive: 8.2 µM [cytotoxic, partial curve] | 
C#CCNC(=O)C[C@@H]1C[C@@]2(C(=O)OC)CCCCC=C2N(CCC2=CCCCC2)C1=O | inconclusive: 32.6 µM [rising, single point] | 
O=[N+]([O-])c1cccc(S(=O)(=O)NC2CC3CCC2C3)c1 (stereo not drawn) | inactive | 
CC(C)(C)c1ccc(C(=O)N2CCC2(C)C(=O)NCC(F)(F)F)cc1 (stereo not drawn) | inactive | 
CN(C)c1ccc(/C=N\NC(=O)c2ccc(Cn3cc(Cl)cn3)cc2)cc1 | inactive | 
COc1ccc(CNC(=O)c2cnn3c(C(F)F)cc(C)nc23)cc1OC | inconclusive: 20.6 µM [cytotoxic, single point] | 
OCC#CCSc1nnc(-c2cccc3ccccc23)o1 | inactive | 
Cc1ccc(Cl)cc1NC(=O)c1sc2nc(-c3ccccc3)cn2c1C | inactive | 
Cc1ccc(N(CC(=O)NC2CCCCC2)C(=O)c2ccc(C)s2)cc1 | inconclusive: 29.1 µM [cytotoxic, single point] | 
O=[N+]([O-])c1ccc(Br)c(CN2CCN(c3ncc(Cc4ccccc4)cn3)CC2)c1 | inconclusive: 20.6 µM [cytotoxic, single point] | 
Cc1c(/C(O)=C2/C(=O)C(=O)N(CCN3CCOCC3)C2c2ccccn2)cnn1-c1ccccc1 (stereo not drawn) | inconclusive: 11.6 µM [rising, partial curve] | 
CCOC(=O)c1ccc(NC(=O)c2nc[nH]c2C(=O)NCCCCCNC(=O)OC(C)(C)C)cc1 | inconclusive: 18.4 µM [cytotoxic, single point] | 
Cc1cccc(N2CCN(C(=O)c3ccc4c(c3)c(C)c(C)n4C)CC2)c1C | inactive | 
CCC(C)Nc1nc2c(c(=O)n(C)c(=O)n2C)n1Cc1ccc(Cl)cc1 (stereo not drawn) | inconclusive: 5.8 µM [rising, full curve] | 
CC1CCN(CCn2c(=S)[nH]c3ccccc3c2=O)CC1 |  | inconclusive: 12.3%
O=C1c2oc3ccc(F)cc3c(=O)c2C(c2ccccc2)N1CC1CCCO1 (stereo not drawn) | active: 8.2 µM | 
CCCn1nc2cc(C(=O)NCCc3cccs3)ccc2c1OCC | inactive | 
CC1CCC(NS(=O)(=O)c2ccc(Cl)s2)CC1 (stereo not drawn) | inactive | 
C=CCOc1ccc(CNCCO)cc1OCC | inconclusive: 18.4 µM [cytotoxic, single point] | 
O=C(COc1ccccc1)Nc1ccc(-c2nnc(-c3ccco3)o2)cc1 | inactive | 

SMILES | Potency | activity change, negative = cytotoxicity
O=[N+]([O-])c1cc(C(F)(F)F)cc([N+](=O)[O-])c1NCCN1CCNCC1 | inactive | 
CCCCn1nnnc1C1(C)CCC(=O)N1CCc1ccc(OC)c(OC)c1 (stereo not drawn) | inactive | 
COc1ccc(CCN(C)C/C=C/c2ccccc2[N+](=O)[O-])cc1OC | inconclusive: 2.59 µM [cytotoxic, partial curve, poor fit] | 
CC1=CC2=NC(=O)/C(=C\c3cccn3CCOc3cc(C)cc(C)c3)C(=N)N2O1 | inconclusive: 29.1 µM [cytotoxic, single point] | 
CCc1nnc(NC(=O)CN2CCN(Cc3cccc(F)c3)CC2)s1 |  | inconclusive: -10%
O=c1oc2cc(O)ccc2s1 |  | inconclusive: -35.5% [cytotoxic]
CC(=O)c1ccc(N2CCN(C(=O)Nc3ccc(Cl)cc3)CC2)cc1 | inconclusive: 8.2 µM [cytotoxic, partial curve] | 
COCCn1c(N2CCN(c3ccccc3)CC2)nc2c1c(=O)n(C)c(=O)n2C | inconclusive: 13 µM [cytotoxic, partial curve, poor fit] | 
Cc1noc(C)c1S(=O)(=O)N(CC(=O)N1CCCC1)c1ccc(C(C)C)cc1 |  | inconclusive: -11.9%
COC(=O)Cn1c(=O)n(CCc2ccccc2)c(=O)c2c3c(sc21)CCCC3 | active: 20.6 µM | 
c1ccc(Oc2cc(-c3ccccc3)ncn2)cc1 | inactive | 
NC(=O)CSc1nc(N)c2c3c(sc2n1)CCCCC3 | inconclusive: 32.6 µM [cytotoxic, single point] | 
C#CCn1c(S(=O)(=O)Cc2ccc(C)cc2)nc(-c2ccccc2)c1-c1ccccc1 | active: 6.51 µM | 
CCN(C1CCCCC1)S(=O)(=O)CCNC(=O)c1ccccc1 | active: 4.11 µM | 
CCOc1cccc(-c2nnc3n2N=C(c2cc(OC)ccc2OC)CS3)c1 | inactive | 
c1ccc2c(c1)ncn2CCC1CCCCC1 | inconclusive: 20.6 µM [cytotoxic, single point] | 
CN(C)c1ccc(/C=N/OC(=O)Nc2ccccc2Cl)cc1 | inconclusive: 29.1 µM [cytotoxic, single point] | 
Cc1noc(C)c1CSc1nc2[nH]ncc2c(=O)n1-c1ccccc1 | inconclusive: 1.64 µM [cytotoxic, partial curve, poor fit] | 
C/C(=N\NC(=O)c1ccccn1)c1ccc(Cl)cc1 | inconclusive: 16.4 µM [cytotoxic, single point] | 
Cc1c(OCC(=O)N2CCC(C(=O)NCCCC(=O)O)CC2)ccc2c1oc(=O)c1ccccc12 | inactive | 
Cc1ccccc1-c1nc2sc3c(c2c(=O)n1N)CCCC3 | inconclusive: 18.4 µM [cytotoxic, partial curve, poor fit] | 
O=C(CSc1nc2ccc(Cl)cc2[nH]1)N1CCN(C(=O)c2ccco2)CC1 | inconclusive: 10.3 µM [cytotoxic, partial curve, poor fit] | 
CCCn1c(SCC(=O)N2c3ccccc3CCc3ccccc32)nc2c1c(=O)n(C)c(=O)n2C | active: 4.11 µM | 
Cc1ccc(CCNC(=O)CCCn2c(=O)c3ccccc3n(CC(=O)Nc3cc(Cl)ccc3C)c2=O)cc1 | inactive | 
CN(CCCNC(=O)c1ccc(/C=N/O)nc1)CCCN(C)Cc1ccccc1 | inconclusive: 20.6 µM [rising, single point] | 

SMILES | Potency | activity change, negative = cytotoxicity
Cc1ccc(N=Nc2ccc3ccccc3c2O)cc1 | inactive | 
Cc1oc(C(=O)O)cc1COc1cccc2cccnc12 | inconclusive: 0.231 µM [rising, full curve] | 
Cc1ccc(Cl)c(NC(=O)COC(=O)c2nn(-c3ccccc3)cc2O)c1Cl | inactive | 
CC1(C(=O)NC2CCCCCC2)CCC(=O)N1Cc1ccc2c(c1)OCO2 (stereo not drawn) | active: 20.6 µM | 
CCCCNc1nnc(SCC(=O)N2CCN(S(=O)(=O)c3ccc4ccccc4c3)CC2)s1 | inconclusive: 16.4 µM [cytotoxic, partial curve] | 
Cc1cc(C)cc(CC2CC(=O)N(c3cc(C)ccc3C)C2=O)c1 (stereo not drawn) | inconclusive: 13 µM [cytotoxic, partial curve] | 
CCc1cc(C(=O)OC)c(NC(=O)C2CC(=O)NN2Cc2ccccc2)s1 (stereo not drawn) | inconclusive: 32.6 µM [cytotoxic, single point] | 
COc1cc2ncnc(Nc3cccc(Cl)c3)c2cc1OC | inconclusive: 29.1 µM [cytotoxic, single point] | 
Cc1ccc(C2(CCNCc3ccc(N(C)C)cc3)CCOC(C(C)C)C2)cc1 (stereo not drawn) | inconclusive: 23.1 µM [cytotoxic, partial curve, poor fit] | 
COCCCNC(=S)Nc1cc(C)c(C)cc1C | inactive | 
CN(C)CCNc1ccc(-c2nn(C)c(=O)c3ccccc23)cc1[N+](=O)[O-] | active: 23.1 µM | 
CC(C)CN(C(=O)COC(=O)c1ccccc1Sc1ccccc1C#N)C1CCS(=O)(=O)C1 (stereo not drawn) | inconclusive: 13 µM [cytotoxic, partial curve] | 
Cc1c(NS(=O)(=O)c2ccc(N(C)C3CCCCC3)c([N+](=O)[O-])c2)c(=O)n(-c2ccccc2)n1C | active: 14.6 µM | 
COCCNC(=S)NN(c1ccccc1)c1ccccc1 | inconclusive: 20.6 µM [cytotoxic, single point] | 
Cc1cccc(C)c1OCC(=O)Nc1cccc(-c2nnc(-c3ccccc3)o2)c1 | inconclusive: 29.1 µM [cytotoxic, single point] | 
CC(C(=O)NCC1CCCCC1)N1CCN(S(=O)(=O)c2cccs2)CC1 (stereo not drawn) | inactive | 
CC1(C)Cc2nc3oc4c(N5CCOCC5)ncnc4c3cc2CO1 | inconclusive: 13 µM [cytotoxic, partial curve] | 
O=c1ccc(-c2ccc(S(=O)(=O)Nc3ccc(F)cc3)s2)n[nH]1 | inactive | 
COCc1cc(CN2CCCC(C(=O)c3cccc(C(F)(F)F)c3)C2)ccc1OC (stereo not drawn) | inactive | 
COc1ccc(C(=O)/C=C/c2cccc(OCc3ccccc3)c2)cc1CSCC(=O)O | inconclusive: 10.3 µM [rising, partial curve, poor fit] | 
CC(=O)c1ccc(OCC(=O)N2CCN(S(=O)(=O)c3ccc(C)cc3C)CC2)cc1 | inconclusive: 9.2 µM [cytotoxic, partial curve] | 
Cn1c(=O)c2c(-c3ccccc3)n(C3CCCCC3)cc2n(C)c1=O | active: 20.6 µM | 
Cn1c(CNC(=O)CNC(=O)c2ccccc2F)cc(=O)n(C)c1=O | inconclusive: 9.2 µM [rising, partial curve] | 

Looked up above.
Entry for Cc1ccc(CCNC(=O)CCCn2c(=O)c3ccccc3n(CC(=O)Nc3cc(Cl)ccc3C)c2=O)cc1 under Potency: inactive
Entry for O=C(CSc1nc2ccc(Cl)cc2[nH]1)N1CCN(C(=O)c2ccco2)CC1 under Potency: inconclusive: 10.3 µM [cytotoxic, partial curve, poor fit]
Entry for Cn1c(=O)c2c(-c3ccccc3)n(C3CCCCC3)cc2n(C)c1=O under Potency: active: 20.6 µM
Entry for CC1CCC(NS(=O)(=O)c2ccc(Cl)s2)CC1 (stereo not drawn) under Potency: inactive
Entry for CCCCn1nnnc1C1(C)CCC(=O)N1CCc1ccc(OC)c(OC)c1 (stereo not drawn) under Potency: inactive

From PubChem BioAssay AID1347076 (National Center for Advancing Translational Sciences (NCATS), 2019)
